Assay results reported in the supplement of paper PMC3334620.
Whole data set: some 33,000 sequences, median “E-score (-0.5 to 0.5)” near -0.0059, cut for the highest 2% near 0.26. The list shows a part of the results.

molecular target: T1, Cin5 (UniProt P40917); assay: PBM E-score (8-mer binding enrichment) (E-score (-0.5 to 0.5)); higher = stronger / more preferred TF binding; settings: protein concentration: 100 nM; construct: GST-full length
T1 sequence: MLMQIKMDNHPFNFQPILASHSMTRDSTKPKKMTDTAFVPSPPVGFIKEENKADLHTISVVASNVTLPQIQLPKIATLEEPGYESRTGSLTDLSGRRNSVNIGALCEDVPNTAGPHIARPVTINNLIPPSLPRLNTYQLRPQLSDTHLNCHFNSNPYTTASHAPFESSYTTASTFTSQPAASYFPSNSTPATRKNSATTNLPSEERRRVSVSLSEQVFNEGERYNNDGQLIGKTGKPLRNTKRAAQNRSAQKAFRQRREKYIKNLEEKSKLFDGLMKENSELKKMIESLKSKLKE
In short: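 Each ungapped eight-base word and its reverse complement, pooled, received an E-score from the Universal PBM Analysis Suite. Underlying scans, normalised with masliner, recorded fluorescent anti-GST bound to GST-tagged yeast transcription factors. These were applied at about 100-200 nM to universal all-10-mer Agilent arrays double-stranded by primer extension.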

Sequence	PBM E-score
CACGCCTC	-0.177
CCGAGGCA	-0.143
GCACTTAA	0.0642
GCCGAATA	0.0518
AAACGGAT	0.247
ACCTGACT	0.145
AGAGTCGG	-0.0293
TCTACGCA	0.0187
GAACTCGA	0.0923
CACCAATG	0.179
AGAAAAGA	-0.106
CGAAGTTC	-0.0408
AACCCGTG	-0.338
AACTTGCC	0.0393
AAAAATCT	0.0604
TCTAAGCA	0.132
AATAGTGG	0.0995
GGATGTGA	0.00707
GCAACCGA	-0.0746
CGGTCGGC	-0.247
AGAGTTAA	0.0368
AACGAGGA	0.0327
GAACCCGC	-0.194
GGAATTCC	-0.0348
AAGTCACG	-0.00527

Sequence	PBM E-score
ATAATCCC	0.166
ATAACCAA	0.258
CAAAATCC	0.127
AGCCACAA	0.0169
CAGTTTAC	-0.0464
AGTTTAGC	-0.0182
AATGCACG	-0.0173
GACCTCGC	-0.115
GAAGACAC	-0.0185
CCGATGGA	-0.0955
CGTTTAAA	-0.0294
ATGCGTTA	0.169
ATACGGAG	0.0433
ATTTCGAG	0.0981
CGTAGTAG	-0.0942
AATAGCAA	0.168
CGTAGCGC	-0.253
GAATCGCA	-0.0879
GCTTCTTA	-0.0842
ACAAGACA	0.132
ACCGATAC	0.00438
AGGGGCAG	-0.162
AAAAGCAA	0.143
ATCCCGAC	0.0664
ATTGGTAG	0.0257

Some of the entries above, reformatted:
Sequence | PBM E-score
CAAAATCC | 0.127
ACAAGACA | 0.132
ACCGATAC | 0.00438
AGGGGCAG | -0.162
ATTGGTAG | 0.0257

Carrying on.

Sequence	PBM E-score
GCCGTAGA	-0.0858
GGTAAGTA	-0.00023
CCTGACTA	0.202
TGAAGCAA	-0.109
ATAATCTC	0.239
GTTTGTCA	0.235
ATGCCTAC	-0.0991
AGAATTAG	0.0689
ATCGTTAG	0.0867
AATCGAGA	0.171
AACCTGCT	0.0853
CCGCGCTC	-0.0111
CATTTACG	0.0496
GGTCTTTA	0.0127
ATGCGAAC	0.0685
GACATTGC	-0.11
ATATTTAA	0.223
CGGTACTC	-0.161
ATGGTCCC	-0.053
TCACCCGA	0.0795
AGAGCAAT	-0.162
AAGAGCGG	0.0338
CACCTTTC	-0.0182
TCAGACGA	-0.022
AGCTGATA	0.0998

Sequence	PBM E-score
AAAAAGAC	0.0488
CTAAGTAC	-0.0187
AAGAGGAC	-0.151
CACATCAC	0.0569
GCATAAAC	0.115
CGGGCCAA	-0.23
CACTAAGA	0.152
ATAGCTCA	-0.0109
AACATAGT	0.112
ATCCTGTC	-0.0814
ACGTAGCT	-0.0544
GCAGCGCC	-0.18
CGGTGTCC	-0.213
ACTTTTTA	-0.00388
AAGATAAC	0.14
TGCCCTAA	-0.0446
ATCGTAAA	0.0952
GGCGTGTA	-0.113
CTGGGTGA	-0.107
GCAACGCA	-0.268
AAGGTGGA	-0.0706
AATGGCGC	0.0304
CGGTAAAC	-0.109
CGATTACA	0.177
ATGCCAAA	-0.0697

Sequence	PBM E-score
ATCCTGAA	0.104
AGACATCG	-0.124
CGACGTAA	0.0693
GTCCCCGA	-0.0313
CGACTCAA	0.0867
ACCGGTAT	0.0261
CACAGCAA	0.225
ACTGCTAT	0.123
TAGACTCA	-0.0692
ACTCGGTC	0.0248
GCGCAAGC	-0.075
ACGCTTAA	0.00396
ACACCAGC	-0.139
AACTCGCG	0.194
ACTAGTCC	0.116
CTAATACC	0.104
GCCTACTA	0.0349
ATTAGTTG	0.241
GGGTAAGA	-0.0563
TACCATCA	-0.0241
CGCTTTGA	0.0203
AGGGGACC	-0.229
ATAATAAA	0.24
AGCAACCA	0.197
CGGTGACC	-0.223

Sequence	PBM E-score
AAATCGGC	0.0822
AGTATTAG	0.275
AAAAACCT	0.145
CTGCCCGA	-0.00627
AAAGGGTA	0.0225
AAGCGCCC	-0.0213
CAAGGGGA	-0.0692
CGAGTCTA	-0.247
TCAAATCA	0.146
ATTGCCTG	0.0952
GAACATTA	0.146
AGGGCCTG	-0.298
CCATCACA	-0.0582
AACTGATG	0.108
CACGGATG	-0.0165
GTACGAAA	0.00511
ACTCTAGG	-0.193
GAACTATA	0.25
CCGAGAGA	0.0415
CGGACAGC	0.0135
ACGCGCGA	0.0689
AGTTATAT	0.196
AACTCATA	0.0893
AAAGAGCA	0.051
CGGGACAG	0.00791

Sequence	PBM E-score
AGCGCCAA	-0.104
GTTGCTCA	0.00634
GAGTTTCC	-0.0545
ACAGAGTC	0.0661
GTTACCAA	0.0591
ACTCACCT	-0.046
CGGTATAC	-0.0259
GGTATGCA	-0.0414
CAGTATGC	0.0107
TATCTCGA	0.0911
AGTGTAAA	0.0996
CGCTTGGA	-0.0635
GGCTCGAC	-0.163
GCCTCACC	-0.108
AGAGGCCT	-0.28
ATCGATGG	0.118
AAGGTTGC	-0.0959
GTGCCAGA	-0.293
GCAGCAAA	-0.0847
GATCCTCC	-0.2
ACTCTAAT	0.0832
ACTCCAAC	0.107

Exported as a markdown table: part of the list above.

| Sequence | PBM E-score |
| --- | --- |
| AGAGGCCT | -0.28 |
| ATCGATGG | 0.118 |
| GTGCCAGA | -0.293 |
